# These are yes or no findings as the source states them, for the method shown. In cells and extracts the contact can be indirect. Binding can be weak; no strength is given. Sequences can lack the tags named with a protein.
# B1: Arabidopsis PCaP1 with a glycine to alanine substitution at position 2, fused to the C-terminal half of citrine (protein, UniProt Q96262 1-225)
# chain: MAYWNSKVVPKFKKLFEKNSAKKAAAAEATKTFDESKETINKEIEEKKTELQPKVVETYEATSAEVKALVRDPKVAGLKKNSAAVQKYLEELVKIEFPGSKAVSEASSSFGAGYVAGPVTFIFEKVSVFLPEEVKTKEIPVEEVKAEEPAKTEEPAKTEGTSGEKEEIVEETKKGETPETAVVEEKKPEVEEKKEEATPAPAVVETPVKEPETTTTAPVAEPPKP
# Biological target: TuMV P3N-PIPO fused to the N-terminal half of citrine (Turnip mosaic virus (TuMV))
# Test: split reporter; BiFC with halves of citrine (YN, YC) in N. benthamiana leaves, agroinfiltration at A600 0.05, confocal microscopy at about 38 h post agroinfiltration
binder,measurement,value
B1,binding,binds

# From paper PMC3325209
